Data published in article PMC6003972.
The exact form of at least one protein or probe is not confirmed. At least one result comes from cells or an extract, where the contact may be indirect. For some assays here: Where a protein sequence is shown, tags need not be part of it.

By UniProt entry, the sequences of proteins in these tests, tags left out.
UniProt Q04206, whole entry: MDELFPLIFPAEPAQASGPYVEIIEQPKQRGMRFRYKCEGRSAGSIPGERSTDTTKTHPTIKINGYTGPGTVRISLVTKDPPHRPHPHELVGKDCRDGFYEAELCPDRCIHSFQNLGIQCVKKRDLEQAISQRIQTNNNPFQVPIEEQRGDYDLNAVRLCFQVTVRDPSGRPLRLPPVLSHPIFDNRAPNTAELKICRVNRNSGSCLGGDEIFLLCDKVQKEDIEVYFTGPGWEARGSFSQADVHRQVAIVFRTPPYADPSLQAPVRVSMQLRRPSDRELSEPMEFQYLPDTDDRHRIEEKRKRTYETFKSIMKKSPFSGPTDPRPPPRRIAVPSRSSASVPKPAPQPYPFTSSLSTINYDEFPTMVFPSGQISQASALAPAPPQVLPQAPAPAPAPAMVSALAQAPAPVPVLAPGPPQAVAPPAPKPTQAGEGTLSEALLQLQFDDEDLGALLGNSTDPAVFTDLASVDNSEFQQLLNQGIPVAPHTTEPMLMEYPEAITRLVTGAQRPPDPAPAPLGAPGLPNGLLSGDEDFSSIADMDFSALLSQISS

Legend:
[1] = target: T1, Rel-B (UniProt Q01201); assay: EMSA supershift; conditions: KYSE150 nuclear extract 2 ug, 20 fmol probe, anti-Rel-B, LightShift chemiluminescent EMSA kit, 20 uL reaction, 2 ug nuclear extract, room temperature 25 min, antibody with extract 10 min at 4 C, protein in an extract
T1 sequence (looked up, limits assumed): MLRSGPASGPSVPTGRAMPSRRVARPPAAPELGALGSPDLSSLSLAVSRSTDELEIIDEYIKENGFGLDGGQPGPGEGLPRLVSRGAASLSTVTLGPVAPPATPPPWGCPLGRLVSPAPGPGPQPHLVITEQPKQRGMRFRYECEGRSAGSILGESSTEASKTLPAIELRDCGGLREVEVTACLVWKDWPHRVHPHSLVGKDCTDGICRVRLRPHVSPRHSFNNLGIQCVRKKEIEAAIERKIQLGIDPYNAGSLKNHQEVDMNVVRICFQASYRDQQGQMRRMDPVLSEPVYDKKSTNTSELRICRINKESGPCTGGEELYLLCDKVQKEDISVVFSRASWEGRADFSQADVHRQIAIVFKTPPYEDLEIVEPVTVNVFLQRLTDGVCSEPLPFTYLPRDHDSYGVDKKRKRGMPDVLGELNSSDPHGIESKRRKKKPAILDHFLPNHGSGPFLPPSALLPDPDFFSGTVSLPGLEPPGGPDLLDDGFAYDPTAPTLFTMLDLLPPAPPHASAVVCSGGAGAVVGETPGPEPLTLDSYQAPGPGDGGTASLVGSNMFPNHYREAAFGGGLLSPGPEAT

[2] = target: NF-kB p65 (UniProt Q04206); assay: EMSA supershift; conditions: KYSE150 nuclear extract 2 ug, 20 fmol probe, anti-p65, LightShift chemiluminescent EMSA kit, 20 uL reaction, 2 ug nuclear extract, room temperature 25 min, antibody with extract 10 min at 4 C, protein in an extract

TGGGGAGGAGCTGCCAGGATTCAGGAGTTTCCTGGGTGAG (double strand) [SLC52A3 TBS3 EMSA probe (-2782/-2743)]
binding result [1]: binds
binding result [2]: binds
